Assay results: paper PMC10805752
No constants are given. Whether binding was seen depends on the method and setting. Binding seen in cells or lysates may run through a third protein. Some results given as binding are weak or reduced against the parent protein; the word gives no strength.

How the values were obtained:
[1] = biological target: epidermal growth factor receptor (EGFR) (UniProt P00533); experiment: co-IP; HEK293 cells overexpressing ADAMTS1, L1CAM and EGFR; NETN lysis buffer (150 mM NaCl, 20 mM Tris-base, 1 mM EDTA, 0.5% NP-40); 0.5 mg lysate with anti-EGFR, anti-L1CAM or IgG antibody overnight at 4 °C, protein A Sepharose beads 2 h, five washes; Western blot
[2] = biological target: L1 cell adhesion molecule (L1CAM) (UniProt P32004); experiment: as above

Substance | binding [1] | binding [2]
L1 cell adhesion molecule (L1CAM) (from UniProt P32004 20-1257) | binds | 
epidermal growth factor receptor (EGFR) (from UniProt P00533 25-1210) |  | binds
